# Publication doi:10.64898/2025.12.26.696629
# The exact form of at least one protein or probe is not confirmed. At least one verdict was read from the data and is not stated in words by the source.
# Tested on: ArnR (Corynebacterium glutamicum)
# Experiment: EMSA
# Conditions: 50 nM DNA
sequence,measurement,value
GTTGCCTAATTAAATACGGAAAACCCCGTTGAAAAACATGCGG (double strand) [PnarK 43-bp],binding result,binds
